Reference: PMC4858382
These are yes or no findings as the source states them, for the method shown. Binding seen in cells or lysates may run through a third protein. Tags and fused reporters may be left off the sequences shown. One block for each molecule: values may come before it.

Protein sequences, listed by entry. Tags and fused reporters are not part of them.
UniProt Q9P209: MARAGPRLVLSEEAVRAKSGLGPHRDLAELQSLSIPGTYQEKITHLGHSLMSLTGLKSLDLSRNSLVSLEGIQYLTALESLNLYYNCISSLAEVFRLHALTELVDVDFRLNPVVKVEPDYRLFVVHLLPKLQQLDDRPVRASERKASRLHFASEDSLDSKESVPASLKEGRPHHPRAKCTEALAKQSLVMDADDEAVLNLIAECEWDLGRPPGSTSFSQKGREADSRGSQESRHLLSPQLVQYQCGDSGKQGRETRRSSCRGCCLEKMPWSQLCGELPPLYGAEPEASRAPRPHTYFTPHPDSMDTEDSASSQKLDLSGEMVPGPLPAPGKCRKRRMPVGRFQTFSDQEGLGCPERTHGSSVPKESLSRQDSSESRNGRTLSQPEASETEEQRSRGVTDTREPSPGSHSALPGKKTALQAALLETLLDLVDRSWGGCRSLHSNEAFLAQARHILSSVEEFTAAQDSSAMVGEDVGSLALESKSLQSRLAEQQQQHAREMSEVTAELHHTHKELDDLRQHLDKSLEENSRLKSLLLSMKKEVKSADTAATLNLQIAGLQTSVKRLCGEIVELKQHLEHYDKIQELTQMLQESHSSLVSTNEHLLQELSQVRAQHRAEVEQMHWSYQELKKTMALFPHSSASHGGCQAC

Assays:
[1] = molecular target: T1, Myc-mPCM1 fragment containing residues 601–2025 (mouse) (UniProt Q9R0L6); test: co-IP; HEK293T transfected with Myc-mPCM1 fragments for 48 h; lysates in ELB buffer (50 mM Hepes pH 7, 150 mM NaCl, 5 mM EDTA, 0.1% NP-40); anti-Myc antibody on Protein G Sepharose, 4°C; western blot for endogenous satellite proteins
T1 sequence: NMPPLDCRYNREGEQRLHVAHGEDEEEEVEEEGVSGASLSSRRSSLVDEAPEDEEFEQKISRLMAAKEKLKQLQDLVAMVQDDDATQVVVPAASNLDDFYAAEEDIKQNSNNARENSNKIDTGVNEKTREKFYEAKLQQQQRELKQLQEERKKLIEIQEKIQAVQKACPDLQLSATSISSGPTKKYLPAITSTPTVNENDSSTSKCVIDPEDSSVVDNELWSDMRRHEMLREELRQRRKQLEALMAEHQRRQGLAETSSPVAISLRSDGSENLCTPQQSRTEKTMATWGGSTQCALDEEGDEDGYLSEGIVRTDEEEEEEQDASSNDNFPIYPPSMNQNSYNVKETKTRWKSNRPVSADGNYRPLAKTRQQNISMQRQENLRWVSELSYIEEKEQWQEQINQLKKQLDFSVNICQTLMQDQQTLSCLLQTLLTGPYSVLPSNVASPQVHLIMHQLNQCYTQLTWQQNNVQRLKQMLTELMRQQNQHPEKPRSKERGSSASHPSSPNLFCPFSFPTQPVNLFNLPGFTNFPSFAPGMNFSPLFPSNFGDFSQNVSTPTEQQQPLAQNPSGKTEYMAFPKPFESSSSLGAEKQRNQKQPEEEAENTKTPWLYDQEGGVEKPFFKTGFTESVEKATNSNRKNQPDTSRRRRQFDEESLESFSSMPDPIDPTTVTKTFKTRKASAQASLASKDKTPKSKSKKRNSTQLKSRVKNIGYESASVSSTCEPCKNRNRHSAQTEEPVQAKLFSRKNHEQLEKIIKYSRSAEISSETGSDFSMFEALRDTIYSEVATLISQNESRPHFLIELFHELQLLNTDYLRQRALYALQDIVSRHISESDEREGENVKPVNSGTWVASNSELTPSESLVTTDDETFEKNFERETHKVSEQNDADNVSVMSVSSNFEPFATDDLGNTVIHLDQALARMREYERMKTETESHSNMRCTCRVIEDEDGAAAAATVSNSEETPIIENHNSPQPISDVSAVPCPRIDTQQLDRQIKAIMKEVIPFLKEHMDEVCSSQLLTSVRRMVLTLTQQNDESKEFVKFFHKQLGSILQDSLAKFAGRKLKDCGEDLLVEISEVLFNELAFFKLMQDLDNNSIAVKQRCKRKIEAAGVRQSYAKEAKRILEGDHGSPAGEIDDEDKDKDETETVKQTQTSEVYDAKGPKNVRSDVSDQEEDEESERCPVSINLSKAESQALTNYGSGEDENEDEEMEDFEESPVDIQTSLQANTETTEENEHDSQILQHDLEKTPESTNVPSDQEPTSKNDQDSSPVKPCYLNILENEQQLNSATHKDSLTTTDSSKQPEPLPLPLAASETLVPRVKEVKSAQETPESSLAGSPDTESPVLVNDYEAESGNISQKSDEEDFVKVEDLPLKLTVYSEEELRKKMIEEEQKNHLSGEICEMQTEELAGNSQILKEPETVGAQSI

[2] = molecular target: T2, Myc-mPCM1 fragment 1–800 (mouse) (UniProt Q9R0L6); test: as above
T2 sequence: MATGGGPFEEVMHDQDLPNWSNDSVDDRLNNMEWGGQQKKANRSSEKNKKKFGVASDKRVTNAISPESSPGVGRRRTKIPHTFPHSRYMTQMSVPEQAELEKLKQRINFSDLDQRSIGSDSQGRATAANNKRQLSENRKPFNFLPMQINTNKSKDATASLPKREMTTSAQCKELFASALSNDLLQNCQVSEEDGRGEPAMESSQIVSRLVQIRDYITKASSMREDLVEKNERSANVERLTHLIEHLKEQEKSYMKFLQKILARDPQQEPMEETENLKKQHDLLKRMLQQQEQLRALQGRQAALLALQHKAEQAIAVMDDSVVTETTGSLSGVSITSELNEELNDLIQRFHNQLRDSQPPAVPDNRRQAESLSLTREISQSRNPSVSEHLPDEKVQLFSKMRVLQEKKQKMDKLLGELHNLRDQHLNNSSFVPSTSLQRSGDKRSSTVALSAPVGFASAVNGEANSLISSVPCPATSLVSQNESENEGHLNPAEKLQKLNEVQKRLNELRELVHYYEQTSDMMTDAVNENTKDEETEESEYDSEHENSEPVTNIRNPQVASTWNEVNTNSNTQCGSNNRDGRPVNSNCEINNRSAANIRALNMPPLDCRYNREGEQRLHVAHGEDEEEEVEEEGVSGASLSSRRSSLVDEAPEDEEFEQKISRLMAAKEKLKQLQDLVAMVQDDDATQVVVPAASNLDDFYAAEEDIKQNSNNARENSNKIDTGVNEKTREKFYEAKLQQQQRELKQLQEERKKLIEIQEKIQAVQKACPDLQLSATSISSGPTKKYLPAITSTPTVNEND

binding [1]: no binding
Molecule: Cep72, endogenous (from UniProt Q9P209 1-647)

binding [2]: no binding
B1: AZI1/Cep131, endogenous (protein, UniProt Q9UPN4 1-1083)
chain: MKGTRAIGSVPERSPAGVDLSLTGLPPPVSRRPGSAATTKPIVRSVSVVTGSEQKRKVLEATGPGGSQAINNLRRSNSTTQVSQPRSGSPRPTEPTDFLMLFEGSPSGKKRPASLSTAPSEKGATWNVLDDQPRGFTLPSNARSSSALDSPAGPRRKECTVALAPNFTANNRSNKGAVGNCVTTMVHNRYTPSERAPPLKSSNQTAPSLNNIIKAATCEGSESSGFGKLPKNVSSATHSARNNTGGSTGLPRRKEVTEEEAERFIHQVNQATVTIQRWYRHQVQRRGAGAARLEHLLQAKREEQRQRSGEGTLLDLHQQKEAARRKAREEKARQARRAAIQELQQKRALRAQKASTAERGPPENPRETRVPGMRQPAQELSPTPGGTAHQALKANNTGGGLPAAGPGDRCLPTSDSSPEPQQPPEDRTQDVLAQDAAGDNLEMMAPSRGSAKSRGPLEELLHTLQLLEKEPDVLPRPRTHHRGRYAWASEVTTEDDASSLTADNLEKFGKLSAFPEPPEDGTLLSEAKLQSIMSFLDEMEKSGQDQLDSQQEGWVPEAGPGPLELGSEVSTSVMRLKLEVEEKKQAMLLLQRALAQQRDLTARRVKETEKALSRQLQRQREHYEATIQRHLAFIDQLIEDKKVLSEKCEAVVAELKQEDQRCTERVAQAQAQHELEIKKLKELMSATEKARREKWISEKTKKIKEVTVRGLEPEIQKLIARHKQEVRRLKSLHEAELLQSDERASQRCLRQAEELREQLEREKEALGQQERERARQRFQQHLEQEQWALQQQRQRLYSEVAEERERLGQQAARQRAELEELRQQLEESSSALTRALRAEFEKGREEQERRHQMELNTLKQQLELERQAWEAGRTRKEEAWLLNREQELREEIRKGRDKEIELVIHRLEADMALAKEESEKAAESRIKRLRDKYEAELSELEQSERKLQERCSELKGQLGEAEGENLRLQGLVRQKERALEDAQAVNEQLSSERSNLAQVIRQEFEDRLAASEEETRQAKAELATLQARQQLELEEVHRRVKTALARKEEAVSSLRTQHEAAVKRADHLEELLEQHRRPTPSTK
